Experimental data as given in publication PMC6726657.
Results are given in words; binding and its absence hold for the method and conditions named. In cells and extracts the contact can be indirect. Some entries that bind do so weakly or less than the wild type.

Amino acid sequences for entries named in this document (tags omitted). A change or cut given only in a name is not applied to a line headed by its entry.
UniProt P60766: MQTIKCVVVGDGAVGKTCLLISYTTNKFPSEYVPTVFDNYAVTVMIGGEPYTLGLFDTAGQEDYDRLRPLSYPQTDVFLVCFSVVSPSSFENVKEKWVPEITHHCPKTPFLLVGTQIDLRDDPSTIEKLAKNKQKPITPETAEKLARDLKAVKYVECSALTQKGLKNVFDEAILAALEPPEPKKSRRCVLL
UniProt Q9QUI0: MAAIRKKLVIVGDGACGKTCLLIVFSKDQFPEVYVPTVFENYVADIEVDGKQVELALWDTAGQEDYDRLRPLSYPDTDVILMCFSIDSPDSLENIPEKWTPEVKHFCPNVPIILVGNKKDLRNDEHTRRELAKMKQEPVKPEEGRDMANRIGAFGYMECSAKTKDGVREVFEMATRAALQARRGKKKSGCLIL
UniProt Q9JKF1: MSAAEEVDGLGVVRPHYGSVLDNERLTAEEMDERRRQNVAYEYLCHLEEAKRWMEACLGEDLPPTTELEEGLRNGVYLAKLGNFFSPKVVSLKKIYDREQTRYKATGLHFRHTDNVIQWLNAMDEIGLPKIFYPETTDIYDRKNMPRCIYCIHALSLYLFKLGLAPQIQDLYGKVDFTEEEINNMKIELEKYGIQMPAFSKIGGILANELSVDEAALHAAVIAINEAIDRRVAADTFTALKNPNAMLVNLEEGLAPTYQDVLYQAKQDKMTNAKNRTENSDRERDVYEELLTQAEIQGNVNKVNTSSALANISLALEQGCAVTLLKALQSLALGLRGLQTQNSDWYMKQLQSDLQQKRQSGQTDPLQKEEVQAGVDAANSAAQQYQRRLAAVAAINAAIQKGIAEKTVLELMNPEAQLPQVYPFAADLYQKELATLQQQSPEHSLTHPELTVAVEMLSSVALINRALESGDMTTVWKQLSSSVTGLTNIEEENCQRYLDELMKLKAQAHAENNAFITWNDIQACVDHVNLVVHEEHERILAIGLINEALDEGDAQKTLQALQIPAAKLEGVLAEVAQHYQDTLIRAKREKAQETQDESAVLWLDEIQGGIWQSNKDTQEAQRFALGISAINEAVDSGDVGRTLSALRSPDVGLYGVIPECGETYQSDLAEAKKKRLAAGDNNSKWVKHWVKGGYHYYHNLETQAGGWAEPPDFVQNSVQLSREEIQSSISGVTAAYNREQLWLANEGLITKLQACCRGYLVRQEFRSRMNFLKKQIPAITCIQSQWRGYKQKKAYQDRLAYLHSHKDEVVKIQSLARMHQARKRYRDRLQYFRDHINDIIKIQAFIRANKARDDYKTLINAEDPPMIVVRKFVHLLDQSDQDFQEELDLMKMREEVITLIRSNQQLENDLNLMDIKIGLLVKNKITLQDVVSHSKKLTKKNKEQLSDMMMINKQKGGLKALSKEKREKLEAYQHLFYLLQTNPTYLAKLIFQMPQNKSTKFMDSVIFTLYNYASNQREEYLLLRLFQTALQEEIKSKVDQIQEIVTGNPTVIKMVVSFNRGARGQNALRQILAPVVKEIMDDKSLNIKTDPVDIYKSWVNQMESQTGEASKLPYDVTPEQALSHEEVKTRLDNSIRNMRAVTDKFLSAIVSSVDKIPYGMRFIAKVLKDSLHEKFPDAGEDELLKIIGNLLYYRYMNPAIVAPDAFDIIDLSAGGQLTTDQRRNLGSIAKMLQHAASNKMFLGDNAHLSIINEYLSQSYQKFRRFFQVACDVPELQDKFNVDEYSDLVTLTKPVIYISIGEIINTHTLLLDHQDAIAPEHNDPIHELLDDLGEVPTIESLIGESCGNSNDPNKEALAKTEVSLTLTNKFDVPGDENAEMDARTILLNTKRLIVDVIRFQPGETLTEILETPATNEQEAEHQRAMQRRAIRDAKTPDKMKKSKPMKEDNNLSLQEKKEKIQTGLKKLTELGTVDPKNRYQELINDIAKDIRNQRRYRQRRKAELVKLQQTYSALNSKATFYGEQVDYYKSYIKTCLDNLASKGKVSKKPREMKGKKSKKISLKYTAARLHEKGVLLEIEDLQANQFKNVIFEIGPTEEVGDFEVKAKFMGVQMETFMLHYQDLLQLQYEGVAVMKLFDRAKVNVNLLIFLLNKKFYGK
UniProt Q60610: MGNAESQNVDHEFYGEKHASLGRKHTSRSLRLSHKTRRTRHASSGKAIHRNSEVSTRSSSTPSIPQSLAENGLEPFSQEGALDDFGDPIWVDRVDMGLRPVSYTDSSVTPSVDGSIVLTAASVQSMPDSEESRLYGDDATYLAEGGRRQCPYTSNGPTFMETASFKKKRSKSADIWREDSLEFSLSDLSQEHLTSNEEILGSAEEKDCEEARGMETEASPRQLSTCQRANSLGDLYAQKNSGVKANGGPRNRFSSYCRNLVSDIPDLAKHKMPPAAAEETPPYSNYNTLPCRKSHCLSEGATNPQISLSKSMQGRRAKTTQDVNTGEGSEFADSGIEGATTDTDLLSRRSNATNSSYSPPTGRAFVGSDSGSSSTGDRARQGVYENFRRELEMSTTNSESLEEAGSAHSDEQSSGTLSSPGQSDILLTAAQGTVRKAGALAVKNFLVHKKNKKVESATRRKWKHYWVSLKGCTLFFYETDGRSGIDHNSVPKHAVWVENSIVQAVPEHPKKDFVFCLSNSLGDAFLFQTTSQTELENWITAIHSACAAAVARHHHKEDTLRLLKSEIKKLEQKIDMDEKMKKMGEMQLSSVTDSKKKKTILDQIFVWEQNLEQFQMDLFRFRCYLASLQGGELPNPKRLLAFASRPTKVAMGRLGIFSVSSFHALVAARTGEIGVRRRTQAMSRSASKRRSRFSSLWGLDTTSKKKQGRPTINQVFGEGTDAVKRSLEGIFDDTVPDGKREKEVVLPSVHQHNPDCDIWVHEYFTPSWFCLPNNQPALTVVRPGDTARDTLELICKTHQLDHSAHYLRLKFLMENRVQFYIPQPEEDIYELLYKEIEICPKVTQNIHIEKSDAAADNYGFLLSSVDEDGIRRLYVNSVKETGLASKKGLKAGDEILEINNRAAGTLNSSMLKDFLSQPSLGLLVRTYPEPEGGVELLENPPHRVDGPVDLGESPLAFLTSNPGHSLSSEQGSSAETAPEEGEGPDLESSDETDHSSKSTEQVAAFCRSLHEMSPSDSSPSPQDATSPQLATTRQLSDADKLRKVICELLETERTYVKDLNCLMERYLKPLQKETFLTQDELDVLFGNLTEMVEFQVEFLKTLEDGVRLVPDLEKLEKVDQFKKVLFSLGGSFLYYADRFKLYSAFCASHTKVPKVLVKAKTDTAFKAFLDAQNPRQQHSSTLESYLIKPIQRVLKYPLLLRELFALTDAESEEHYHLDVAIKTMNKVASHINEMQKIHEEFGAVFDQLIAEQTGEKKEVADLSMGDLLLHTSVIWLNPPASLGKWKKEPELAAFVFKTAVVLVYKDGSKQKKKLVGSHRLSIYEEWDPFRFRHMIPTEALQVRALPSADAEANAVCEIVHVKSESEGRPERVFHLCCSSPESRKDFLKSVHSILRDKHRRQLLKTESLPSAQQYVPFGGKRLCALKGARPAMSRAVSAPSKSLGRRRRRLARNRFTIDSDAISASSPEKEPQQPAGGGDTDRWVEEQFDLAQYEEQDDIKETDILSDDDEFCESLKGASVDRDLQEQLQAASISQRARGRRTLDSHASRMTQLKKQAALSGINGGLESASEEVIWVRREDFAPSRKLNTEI

What was measured:
Assay in all cases: co-IP; lysates of bone marrow macrophages of Pggt1b^Δ/Δ and control mice; 25 mM Tris-HCl pH 7.4, 150 mM NaCl, 1 mM EDTA, 1% NP-40, 5% glycerol; IP with antibodies to Rac1, Cdc42, RhoA, Iqgap1 or Tiam1 on Dynabeads Protein G, western blot, densitometry
[1] = molecular target: nonprenylated Cdc42 (in Pggt1b^Δ/Δ macrophages) (mouse (endogenous in bone marrow macrophages)) (UniProt P60766)
[2] = molecular target: nonprenylated RhoA (in Pggt1b^Δ/Δ macrophages) (mouse (endogenous in bone marrow macrophages)) (UniProt Q9QUI0)
[3] = molecular target: Ras GTPase-activating-like protein Iqgap1 (mouse (endogenous in bone marrow macrophages)) (UniProt Q9JKF1)

binding [1]	binding [2]	binding [3]	Substance
binds	binds	–	Ras GTPase-activating-like protein Iqgap1 (from UniProt Q9JKF1 1-1657)
–	–	binds	Tiam1 (from UniProt Q60610 1-1591)
